Reference: paper PMC12462991
These are yes or no findings as the source states them, for the method shown. In cells and extracts the contact can be indirect. Some results given as binding are weak or reduced against the parent protein; the word gives no strength.

Chains of the proteins cited; added tags and fusions are not shown.
UniProt Q99PV5: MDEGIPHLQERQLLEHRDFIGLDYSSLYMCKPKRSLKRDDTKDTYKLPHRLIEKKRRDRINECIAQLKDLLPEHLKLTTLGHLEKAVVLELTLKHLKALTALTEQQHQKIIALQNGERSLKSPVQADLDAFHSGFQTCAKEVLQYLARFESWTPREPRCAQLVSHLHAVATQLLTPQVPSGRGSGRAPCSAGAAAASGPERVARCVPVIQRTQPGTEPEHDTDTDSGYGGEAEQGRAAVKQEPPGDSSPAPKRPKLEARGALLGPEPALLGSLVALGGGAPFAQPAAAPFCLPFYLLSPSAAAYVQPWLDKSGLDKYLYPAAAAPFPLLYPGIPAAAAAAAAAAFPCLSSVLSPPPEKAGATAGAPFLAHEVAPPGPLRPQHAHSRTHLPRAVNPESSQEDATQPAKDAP
UniProt P10085: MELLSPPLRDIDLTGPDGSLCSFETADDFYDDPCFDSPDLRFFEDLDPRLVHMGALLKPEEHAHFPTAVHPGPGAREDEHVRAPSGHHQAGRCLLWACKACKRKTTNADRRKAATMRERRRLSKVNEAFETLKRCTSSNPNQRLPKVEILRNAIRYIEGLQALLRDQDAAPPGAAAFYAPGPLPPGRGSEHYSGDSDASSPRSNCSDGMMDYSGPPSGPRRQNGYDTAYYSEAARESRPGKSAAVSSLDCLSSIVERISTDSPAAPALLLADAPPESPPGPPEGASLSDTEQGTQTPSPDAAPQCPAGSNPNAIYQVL

What was measured:
[1] = target: HA‐tagged DEC2 (basic helix‐loop‐helix family member e41) (UniProt Q99PV5); assay: co-IP; HEK293T cells co-transfected with Dec2‐HA and Myod1‐3xFLAG, lysed in RIPA 48 h later; lysate incubated with anti‐FLAG or anti‐HA antibody 12 h at 4 °C, Protein G Dynabeads, three RIPA washes, western blot with the reciprocal antibody; also with 20 µM CBD for 12 h before extraction (interaction not altered)
[2] = target: FLAG‐tagged MYOD1 (myoblast determination protein 1) (UniProt P10085); assay: as above

Substance | binding [1] | binding [2]
FLAG‐tagged MYOD1 (myoblast determination protein 1) (from UniProt P10085 1-318) | binds | –
HA‐tagged DEC2 (basic helix‐loop‐helix family member e41) (from UniProt Q99PV5 1-410) | – | binds
